PMC7691508 (Nature Communications, 2020)
Results are given in words; binding and its absence hold for the method and conditions named. For part of these data: In cells and extracts the contact can be indirect. Some entries that bind do so weakly or less than the wild type.

By UniProt entry, the sequences of proteins in these tests, tags left out.
UniProt Q8N884: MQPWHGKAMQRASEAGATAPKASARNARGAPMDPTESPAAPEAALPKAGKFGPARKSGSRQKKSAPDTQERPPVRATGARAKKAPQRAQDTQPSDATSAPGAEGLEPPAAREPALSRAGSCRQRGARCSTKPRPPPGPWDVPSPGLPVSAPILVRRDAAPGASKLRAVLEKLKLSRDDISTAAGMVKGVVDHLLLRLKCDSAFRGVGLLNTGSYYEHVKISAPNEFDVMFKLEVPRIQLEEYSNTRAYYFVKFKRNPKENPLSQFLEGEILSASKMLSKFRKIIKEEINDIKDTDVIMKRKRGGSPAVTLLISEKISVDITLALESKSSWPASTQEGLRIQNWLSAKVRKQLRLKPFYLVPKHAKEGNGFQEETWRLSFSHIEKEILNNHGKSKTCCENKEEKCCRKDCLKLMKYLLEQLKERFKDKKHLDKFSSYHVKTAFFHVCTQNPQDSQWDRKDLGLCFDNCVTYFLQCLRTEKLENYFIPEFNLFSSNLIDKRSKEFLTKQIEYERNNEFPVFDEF

What was measured:
[1] = molecular target: cyclic GMP-AMP synthase (cGAS) (UniProt Q8N884); experiment: co-IP
[2] = molecular target: GST-cGAS (UniProt Q8N884); experiment: pull-down; both purified

Row | Substance | binding [1] | binding [2]
1 | β-arrestin 2 K171R mutant (from UniProt P32121 1-409) | binds | –
2 | β-arrestin 2 (from UniProt P32121 1-409) | binds | –
3 | His-β-arrestin 2 (from UniProt P32121 1-409) | – | binds
